Patent US20250283871A1, “COMPOSITIONS AND METHODS FOR MODULATING THE INTERACTION BETWEEN SS18-SSX FUSION ONCOPROTEIN AND NUCLEOSOMES” (Dana-Farber Cancer Institute, Inc., priority 2020, published 2025)

B1: BDH1 (protein, UniProt Q02338 47-343, looked up)
D-beta-hydroxybutyrate …: ASAAEPVGSKAVLVTGCDSGFGFSLAKHLHSKGFLVFAGCLMKDKGHDGVKELDSLNSDRLRTVQLNVCSSEEVEKVVEIVRSSLKDPEKGMWGLVNNAGISTFGEVEFTSLETYKQVAEVNLWGTVRMTKSFLPLIRRAKGRVVNISSMLGRMANPARSPYCITKFGVEAFSDCLRYEMYPLGVKVSVVEPGNFIAATSLYSPESIQAIAKKMWEELPEVVRKDYGKKYFDEKIAKMETYCSSGSTDTSPVIDAVTHALTATTPYTRYHPMDYYWWLRMQIMTHLPGAISDMIYIR
B2: TMED5 (protein, UniProt Q9Y3A6 28-229, looked up)
Transmembrane emp24 …: FTPSLDSDFTFTLPAGQKECFYQPMPLKASLEIEYQVLDGAGLDIDFHLASPEGKTLVFEQRKSDGVHTVETEVGDYMFCFDNTFSTISEKVIFFELILDNMGEQAQEQEDWKKYITGTDILDMKLEDILESINSIKSRLSKSGHIQTLLRAFEARDRNIQESNFDRVNFWSMVNLVVMVVVSAIQVYMLKSLFEDKRKSRT
B3: IARS (protein, UniProt P41252 1-1262, looked up)
Isoleucine--tRNA ligase, …: MLQQVPENINFPAEEEKILEFWTEFNCFQECLKQSKHKPKFTFYDGPPFATGLPHYGHILAGTIKDIVTRYAHQSGFHVDRRFGWDCHGLPVEYEIDKTLGIRGPEDVAKMGITEYNNQCRAIVMRYSAEWKSTVSRLGRWIDFDNDYKTLYPQFMESVWWVFKQLYDKGLVYRGVKVMPFSTACNTPLSNFESHQNYKDVQDPSVFVTFPLEEDETVSLVAWTTTPWTLPSNLAVCVNPEMQYVKIKDVARGRLLILMEARLSALYKLESDYEILERFPGAYLKGKKYRPLFDYFLKCKENGAFTVLVDNYVKEEEGTGVVHQAPYFGAEDYRVCMDFNIIRKDSLPVCPVDASGCFTTEVTDFAGQYVKDADKSIIRTLKEQGRLLVATTFTHSYPFCWRSDTPLIYKAVPSWFVRVENMVDQLLRNNDLCYWVPELVREKRFGNWLKDARDWTISRNRYWGTPIPLWVSDDFEEVVCIGSVAELEELSGAKISDLHRESVDHLTIPSRCGKGSLHRISEVFDCWFESGSMPYAQVHYPFENKREFEDAFPADFIAEGIDQTRGWFYTLLVLATALFGQPPFKNVIVNGLVLASDGQKMSKRKKNYPDPVSIIQKYGADALRLYLINSPVVRAENLRFKEEGVRDVLKDVLLPWYNAYRFLIQNVLRLQKEEEIEFLYNENTVRESPNITDRWILSFMQSLIGFFETEMAAYRLYTVVPRLVKFVDILTNWYVRMNRRRLKGENGMEDCVMALETLFSVLLSLCRLMAPYTPFLTELMYQNLKVLIDPVSVQDKDTLSIHYLMLPRVREELIDKKTESAVSQMQSVIELGRVIRDRKTIPIKYPLKEIVVIHQDPEALKDIKSLEKYIIEELNVRKVTLSTDKNKYGIRLRAEPDHMVLGKRLKGAFKAVMTSIKQLSSEELEQFQKTGTIVVEGHELHDEDIRLMYTFDQATGGTAQFEAHSDAQALVLLDVTPDQSMVDEGMAREVINRIQKLRKKCNLVPTDEITVYYKAKSEGTYLNSVIESHTEFIFTTIKAPLKPYPVSPSDKVLIQEKTQLKGSELEITLTRGSSLPGPACAYVNLNICANGSEQGGVLLLENPKGDNRLDLLKLKSVVTSIFGVKNTELAVFHDETEIQNQTDLLSLSGKTLCVTAGSAPSLINSSSTLLCQYINLQLLNAKPQECLMGTVGTLLLENPLGQNGLTHQGLLYEAAKVFGLRSRKLKLFLNETQTQEITEDIPVKTLNMKTVYVSVLPTTADF
B4: TFB2M (protein, UniProt Q9H5Q4 20-396, looked up)
Dimethyladenosine transferase …: AGRFCILGSEAATRKHLPARNHCGLSDSSPQLWPEPDFRNPPRKASKASLDFKRYVTDRRLAETLAQIYLGKPSRPPHLLLECNPGPGILTQALLEAGAKVVALESDKTFIPHLESLGKNLDGKLRVIHCDFFKLDPRSGGVIKPPAMSSRGLFKNLGIEAVPWTADIPLKVVGMFPSRGEKRALWKLAYDLYSCTSIYKFGRIEVNMFIGEKEFQKLMADPGNPDLYHVLSVIWQLACEIKVLHMEPWSSFDIYTRKGPLENPKRRELLDQLQQKLYLIQMIPRQNLFTKNLTPMNYNIFFHLLKHCFGRRSATVIDHLRSLTPLDARDILMQIGKQEDEKVVNMHPQDFKTLFETIERSKDCAYKWLYDETLEDR
B5: RDH13 (protein, UniProt Q8NBN7 2-331, looked up)
Retinol dehydrogenase 13: SRYLLPLSALGTVAGAAVLLKDYVTGGACPSKATIPGKTVIVTGANTGIGKQTALELARRGGNIILACRDMEKCEAAAKDIRGETLNHHVNARHLDLASLKSIREFAAKIIEEEERVDILINNAGVMRCPHWTTEDGFEMQFGVNHLGHFLLTNLLLDKLKASAPSRIINLSSLAHVAGHIDFDDLNWQTRKYNTKAAYCQSKLAIVLFTKELSRRLQGSGVTVNALHPGVARTELGRHTGIHGSTFSSTTLGPIFWLLVKSPELAAQPSTYLAVAEELADVSGKYFDGLKQKAPAPEAEDEEVARRLWAESARLVGLEAPSVREQPLPR
B6: FLVCR1 (protein, UniProt Q9Y5Y0 1-555, looked up)
Choline/ethanolamine …: MARPDDEEGAAVAPGHPLAKGYLPLPRGAPVGKESVELQNGPKAGTFPVNGAPRDSLAAASGVLGGPQTPLAPEEETQARLLPAGAGAETPGAESSPLPLTALSPRRFVVLLIFSLYSLVNAFQWIQYSIISNVFEGFYGVTLLHIDWLSMVYMLAYVPLIFPATWLLDTRGLRLTALLGSGLNCLGAWIKCGSVQQHLFWVTMLGQCLCSVAQVFILGLPSRIASVWFGPKEVSTACATAVLGNQLGTAVGFLLPPVLVPNTQNDTNLLACNISTMFYGTSAVATLLFILTAIAFKEKPRYPPSQAQAALQDSPPEEYSYKKSIRNLFKNIPFVLLLITYGIMTGAFYSVSTLLNQMILTYYEGEEVNAGRIGLTLVVAGMVGSILCGLWLDYTKTYKQTTLIVYILSFIGMVIFTFTLDLRYIIIVFVTGGVLGFFMTGYLPLGFEFAVEITYPESEGTSSGLLNASAQIFGILFTLAQGKLTSDYGPKAGNIFLCVWMFIGIILTALIKSDLRRHNINIGITNVDVKAIPADSPTDQEPKTVMLSKQSESAI
B7: DDX3X (protein, UniProt O00571 2-662, looked up)
ATP-dependent RNA helicase …: SHVAVENALGLDQQFAGLDLNSSDNQSGGSTASKGRYIPPHLRNREATKGFYDKDSSGWSSSKDKDAYSSFGSRSDSRGKSSFFSDRGSGSRGRFDDRGRSDYDGIGSRGDRSGFGKFERGGNSRWCDKSDEDDWSKPLPPSERLEQELFSGGNTGINFEKYDDIPVEATGNNCPPHIESFSDVEMGEIIMGNIELTRYTRPTPVQKHAIPIIKEKRDLMACAQTGSGKTAAFLLPILSQIYSDGPGEALRAMKENGRYGRRKQYPISLVLAPTRELAVQIYEEARKFSYRSRVRPCVVYGGADIGQQIRDLERGCHLLVATPGRLVDMMERGKIGLDFCKYLVLDEADRMLDMGFEPQIRRIVEQDTMPPKGVRHTMMFSATFPKEIQMLARDFLDEYIFLAVGRVGSTSENITQKVVWVEESDKRSFLLDLLNATGKDSLTLVFVETKKGADSLEDFLYHEGYACTSIHGDRSQRDREEALHQFRSGKSPILVATAVAARGLDISNVKHVINFDLPSDIEEYVHRIGRTGRVGNLGLATSFFNERNINITKDLLDLLVEAKQEVPSWLENMAYEHHYKGSSRGRSKSSRFSGGFGARDYRQSSGASSSSFSSSRASSSRSGGGGHGSSRGFGGGGYGGFYNSDGYGGNYNSQGVDWWGN
B8: EXD2 (protein, UniProt Q9NVH0 1-621, looked up)
Exonuclease 3'-5' …: MSRQNLVALTVTTLLGVAVGGFVLWKGIQRRRRSKTSPVTQQPQQKVLGSRELPPPEDDQLHSSAPRSSWKERILKAKVVTVSQEAEWDQIEPLLRSELEDFPVLGIDCEWVNLEGKASPLSLLQMASPSGLCVLVRLPKLICGGKTLPRTLLDILADGTILKVGVGCSEDASKLLQDYGLVVRGCLDLRYLAMRQRNNLLCNGLSLKSLAETVLNFPLDKSLLLRCSNWDAETLTEDQVIYAARDAQISVALFLHLLGYPFSRNSPGEKNDDHSSWRKVLEKCQGVVDIPFRSKGMSRLGEEVNGEATESQQKPRNKKSKMDGMVPGNHQGRDPRKHKRKPLGVGYSARKSPLYDNCFLHAPDGQPLCTCDRRKAQWYLDKGIGELVSEEPFVVKLRFEPAGRPESPGDYYLMVKENLCVVCGKRDSYIRKNVIPHEYRKHFPIEMKDHNSHDVLLLCTSCHAISNYYDNHLKQQLAKEFQAPIGSEEGLRLLEDPERRQVRSGARALLNAESLPTQRKEELLQALREFYNTDVVTEEMLQEAASLETRISNENYVPHGLKVVQCHSQGGLRSLMQLESRWRQHFLDSMQPKHLPQQWSVDHNHQKLLRKFGEDLPIQLS
B9: MFN1 (protein, UniProt Q8IWA4 1-741, looked up)
Mitofusin-1: MAEPVSPLKHFVLAKKAITAIFDQLLEFVTEGSHFVEATYKNPELDRIATEDDLVEMQGYKDKLSIIGEVLSRRHMKVAFFGRTSSGKSSVINAMLWDKVLPSGIGHITNCFLSVEGTDGDKAYLMTEGSDEKKSVKTVNQLAHALHMDKDLKAGCLVRVFWPKAKCALLRDDLVLVDSPGTDVTTELDSWIDKFCLDADVFVLVANSESTLMNTEKHFFHKVNERLSKPNIFILNNRWDASASEPEYMEDVRRQHMERCLHFLVEELKVVNALEAQNRIFFVSAKEVLSARKQKAQGMPESGVALAEGFHARLQEFQNFEQIFEECISQSAVKTKFEQHTIRAKQILATVKNIMDSVNLAAEDKRHYSVEEREDQIDRLDFIRNQMNLLTLDVKKKIKEVTEEVANKVSCAMTDEICRLSVLVDEFCSEFHPNPDVLKIYKSELNKHIEDGMGRNLADRCTDEVNALVLQTQQEIIENLKPLLPAGIQDKLHTLIPCKKFDLSYNLNYHKLCSDFQEDIVFRFSLGWSSLVHRFLGPRNAQRVLLGLSEPIFQLPRSLASTPTAPTTPATPDNASQEELMITLVTGLASVTSRTSMGIIIVGGVIWKTIGWKLLSVSLTMYGALYLYERLSWTTHAKERAFKQQFVNYATEKLRMIVSSTSANCSHQVKQQIATTFARLCQQVDITQKQLEEEIARLPKEIDQLEKIQNNSKLLRNKAVQLENELENFTKQFLPSSNEES

The molecules below were run on BAF complex subunits and histone proteins (assay: Mass spectrometry proteomics of purified HA-SS18 WT and HA-SS18-SSX1 complexes (Tables 5A-5E)). Settings: HA-SS18SSX1_NE_peptides: protein co-purified with HA-SS18-SSX1 BAF complexes from soluble nuclear extract (NE), HEK-293T cells.
Design: species or system human
For B1, the “Total (peptides)” value was 1 and the “Unique (peptides)” value was 1.
In the case of B2, the “Total (peptides)” value is reported as 1 and the “Unique (peptides)” value is reported as 1.
For B3, the “Total (peptides)” value was 1 and the “Unique (peptides)” value was 1.
With B4 the “Total (peptides)” value was 1 and the “Unique (peptides)” value was 1.
In the case of B5, the “Total (peptides)” value is reported as 1 and the “Unique (peptides)” value is reported as 1.
With B6 the “Total (peptides)” value was 1 and the “Unique (peptides)” value was 1.
With B7 the “Total (peptides)” value was 1 and the “Unique (peptides)” value was 1.
With B8 the “Total (peptides)” value was 1 and the “Unique (peptides)” value was 1.
With B9 the “Total (peptides)” value was 1 and the “Unique (peptides)” value was 1.

Same assay, conditions: HA-SS18WT_CHR_peptides: protein identified in HA-SS18 WT BAF complex purification from nuclease-treated solubilized chromatin (CHR), HEK-293T
In the case of B7, the “Total (total peptides)” value is reported as 1 and the “Unique (unique peptides)” value is reported as 1.

Same assay, conditions: HA-SS18WT_NE_peptides: proteins co-purified with HA-SS18 WT from nuclear extract (NE), HEK-293T
With B1 the “Total (peptides)” value was 1 and the “Unique (peptides)” value was 1.
With B2 the “Total (peptides)” value was 1 and the “Unique (peptides)” value was 1.
In the case of B3, the “Total (peptides)” value is reported as 2 and the “Unique (peptides)” value is reported as 1.
B4 was tested, and the “Total (peptides)” value was 1 and the “Unique (peptides)” value was 1.
In the case of B5, the “Total (peptides)” value is reported as 1 and the “Unique (peptides)” value is reported as 1.
With B8 the “Total (peptides)” value was 2 and the “Unique (peptides)” value was 2.
B9 was tested, and the “Total (peptides)” value was 1 and the “Unique (peptides)” value was 1.
